Reference: PubChem BioAssay AID256 (DTP/NCI, 2004)
The list is a part of this screen's results and no random one: it gathers tests that were run many times, whatever their T/C, doses with no T/C, and many T/C values between a quarter and a half above the control. Further doses and runs are listed elsewhere. T/C gives the treated animals as a percentage of the vehicle group. Some entries give survivors of the animals treated and no T/C: the source holds a T/C of zero for them, seemingly a mark for toxic or unscored doses. Some doses without a T/C left all or most animals alive at the check, yet need not have been tolerated: survival well below the control is almost never listed, so the zero probably covers shortened survival too. Survivors were counted at the toxicity check, usually on the fifth day, unless a day is given; later deaths do not show. Schedule codes are those of the source, read here as Q, the interval in days (D) or hours (H), X, the number of doses. Some schedules carry Z or #; the key to these is not given. Where survival is the endpoint, this PubChem deposit counts one and a half times the control or more as active, and values a quarter to a half above the control carry no call in these data; other NCI protocols may use other cut-offs. Some T/C values are followed by the survivors on the day toxicity was checked, most often the fifth; without a count, all were alive then. Some doses were run more than once; the values are given in rising order.

Test system: CD2F1 mice, L1210 leukemia ip, survival T/C
Test: NCI In Vivo Anticancer Drug Screen. Data for tumor model L1210 Leukemia (intraperitoneal) in CD2F1 (CDF1) mice
Conditions: higher T/C = longer survival
Outline: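 Each value reflects a quotient of treated over vehicle control outcomes in mice with a transplanted tumor.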

[1] = T/C endpoint: mean survival time, dose: 400.0 mg/kg/injection, schedule: Q01DX009 (ip), vehicle: saline
[2] = T/C endpoint: mean survival time, dose: 150.0 mg/kg/injection, schedule: Q01DX001 (ip), vehicle: saline
[3] = T/C endpoint: mean survival time, dose: 400.0 mg/kg/injection, schedule: Q04DX002 (ip), vehicle: saline with Tween-80
[4] = T/C endpoint: mean survival time, dose: 100.0 mg/kg/injection, schedule: Q04DX003 (ip), vehicle: saline with Tween-80
[5] = T/C endpoint: mean survival time, dose: 200.0 mg/kg/injection, schedule: Q04DX002 (ip), vehicle: saline with Tween-80
[6] = T/C endpoint: mean survival time, dose: 200.0 mg/kg/injection, schedule: Q01DX001 (ip), vehicle: Klucel (hydroxypropylcellulose) (HPC)

O=C(/C(Br)=C/c1ccccc1)c1ccccc1 was tested, and the survivor count (T/C endpoint: mean survival time, dose: 400.0 mg/kg/injection, schedule: Q04DX003 (ip), vehicle: other) was 5 of 6.

For CSc1nnc([N+](=O)[O-])s1, the survivor count (T/C endpoint: mean survival time, dose: 100.0 mg/kg/injection, schedule: Q04DX003 (ip), vehicle: Klucel (hydroxypropylcellulose) (HPC)) was 0 of 6, the survivor count (T/C endpoint: mean survival time, dose: 200.0 mg/kg/injection, schedule: Q04DX003 (ip), vehicle: Klucel (hydroxypropylcellulose) (HPC)) was 1 of 6 and the survivor count (T/C endpoint: mean survival time, dose: 400.0 mg/kg/injection, schedule: Q04DX003 (ip), vehicle: Klucel (hydroxypropylcellulose) (HPC)) was 4 of 6.

For CC1(COCCOCC2(C)CO2)CO1 (stereo not drawn), the T/C [1] was 134 % of control.

For COc1cc(C(C2=C(O)c3ccccc3C(=O)C2=O)C2=C(O)c3ccccc3C(=O)C2=O)cc(Br)c1O, the survivor count (T/C endpoint: mean survival time, dose: 400.0 mg/kg/injection, schedule: Q01DX009 (ip), vehicle: alcohol) was 5 of 6.

With CC1OC(OC(=O)c2ccc([N+](=O)[O-])cc2)CC(NC(=O)C(F)(F)F)C1OC(=O)c1ccc([N+](=O)[O-])cc1 (stereo not drawn) the survivor count (T/C endpoint: mean survival time, dose: 100.0 mg/kg/injection, schedule: Q01DX005 (ip), vehicle: Klucel (hydroxypropylcellulose) (HPC)) was 3 of 4, the survivor count (T/C endpoint: mean survival time, dose: 200.0 mg/kg/injection, schedule: Q01DX005 (ip), vehicle: Klucel (hydroxypropylcellulose) (HPC)) was 3 of 4 and the survivor count (T/C endpoint: mean survival time, dose: 400.0 mg/kg/injection, schedule: Q01DX005 (ip), vehicle: Klucel (hydroxypropylcellulose) (HPC)) was 1 of 4.

Oc1ccc2c3c1OC1C(O)C=CC4C(C2)NCCC341 (stereo not drawn) was tested, and the survivor count (T/C endpoint: mean survival time, dose: 200.0 mg/kg/injection, schedule: Q04DX003 (ip), vehicle: DMSO) was 1 of 3 and the survivor count (T/C endpoint: mean survival time, dose: 400.0 mg/kg/injection, schedule: Q04DX003 (ip), vehicle: DMSO) was 0 of 3.

In the case of CC(C)(C)C(=O)O, the survivor count [1] is reported as 0 of 6.

For COc1ccc2[nH]c3c(c2c1)CCNC3CC(C)CCC=C(C)C (stereo not drawn), the survivor count (T/C endpoint: mean survival time, dose: 200.0 mg/kg/injection, schedule: Q01DX009 (ip), vehicle: Klucel (hydroxypropylcellulose) (HPC)) was 0 of 6.

CN(Cc1cnc2nc(N)nc(N)c2n1)c1ccc(C(=O)NC(CCC(=O)NC(CCC(=O)NC(CCC(=O)O)C(=O)O)C(=O)O)C(=O)O)cc1 (stereo not drawn) was tested, and the T/C (T/C endpoint: mean survival time, dose: 4.0 mg/kg/injection, schedule: Q01DX005 (ip), vehicle: sodium bicarbonate) was 129 and 144 % of control [5 of 6 alive] and the survivor count (T/C endpoint: mean survival time, dose: 32.0 mg/kg/injection, schedule: Q01DX005 (ip), vehicle: sodium bicarbonate) was 4 of 6.

CNCCc1ccc(O)c(O)c1 was tested, and the survivor count (T/C endpoint: mean survival time, dose: 75.0 mg/kg/injection, schedule: Q01DX001 (ip), vehicle: saline) was 2 of 6 and the survivor count [2] was 0 of 6.

In the case of O=C1C=CC(=CC=C2C=CN(CCCCCCCCCCCO)C=C2)C=C1, the T/C (T/C endpoint: median survival time, dose: 6.25 mg/kg/injection, schedule: Q01DX005 (ip), vehicle: saline with Tween-80) is reported as 127 % of control and the T/C (T/C endpoint: median survival time, dose: 28.93 mg/kg/injection, schedule: Q01DX005 (ip), vehicle: saline with Tween-80) is reported as 125 % of control.

For Cc1cccc(Cl)c1NC(=O)Nc1cc(Cl)ccc1Oc1c(Cl)cc(Cl)cc1S(=O)(=O)O, the survivor count (T/C endpoint: mean survival time, dose: 400.0 mg/kg/injection, schedule: Q01DX009 (ip), vehicle: saline with Tween-80) was 0 of 6.

In the case of O=C(OCc1ccccc1)C1CC1, the survivor count [3] is reported as 0 of 3.

With CC(C)=NNC(=O)CC(=O)NN=C(C)C the T/C (T/C endpoint: mean survival time, dose: 400.0 mg/kg/injection, schedule: Q01DX009 (ip), vehicle: saline sonified) was 130 % of control [5 of 6 alive].

For C=CCc1cccc(OC)c1OCCN(CC)CC, the survivor count [4] was 0 of 6, the survivor count (T/C endpoint: mean survival time, dose: 200.0 mg/kg/injection, schedule: Q04DX003 (ip), vehicle: saline with Tween-80) was 0 of 6 and the survivor count (T/C endpoint: mean survival time, dose: 400.0 mg/kg/injection, schedule: Q04DX003 (ip), vehicle: saline with Tween-80) was 0 of 6.

COc1ccccc1NC(=O)N(CCCl)N=O was tested, and the T/C (T/C endpoint: mean survival time, dose: 2.3 mg/kg/injection, schedule: Q01DX009 (ip), vehicle: carboxymethylcellulose (CMC)) was 129 % of control.

In the case of O=C(CCl)Nc1ncc([N+](=O)[O-])s1, the survivor count (T/C endpoint: mean survival time, dose: 100.0 mg/kg/injection, schedule: Q04DX003 (ip), vehicle: acetone) is reported as 3 of 6, the survivor count (T/C endpoint: mean survival time, dose: 200.0 mg/kg/injection, schedule: Q04DX003 (ip), vehicle: acetone) is reported as 0 of 6 and the survivor count (T/C endpoint: mean survival time, dose: 400.0 mg/kg/injection, schedule: Q04DX003 (ip), vehicle: acetone) is reported as 0 of 6.

In the case of Nc1nc(N)c2cc(CNc3ccc(C(=O)NC(CC(=O)O)CC(=O)O)cc3)ccc2n1, the T/C (T/C endpoint: mean survival time, dose: 25.0 mg/kg/injection, schedule: Q01DX009 (ip), vehicle: Klucel (hydroxypropylcellulose) (HPC)) is reported as 148 % of control.

With O=CC(Br)C(Br)c1ccccc1 (stereo not drawn) the survivor count (T/C endpoint: mean survival time, dose: 50.0 mg/kg/injection, schedule: Q04DX003 (ip), vehicle: saline with Tween-80) was 2 of 6, the survivor count (T/C endpoint: mean survival time, dose: 100.0 mg/kg/injection, schedule: Q01DX009 (ip), vehicle: other) was 6 of 6 and the survivor count [4] was 3 of 6. The survivor count (T/C endpoint: mean survival time, dose: 200.0 mg/kg/injection, schedule: Q01DX009 (ip), vehicle: other) was 0 of 6.

In the case of NCCCN1CCN(c2ccccc2)CC1, the survivor count [3] is reported as 2 of 3.

C/C(=N\N=C(N)N)c1ccc(NC(=O)Nc2ccc(/C(C)=N/N=C(N)N)cc2)cc1 was tested, and the T/C (T/C endpoint: mean survival time, dose: 50.0 mg/kg/injection, schedule: Q03DX003 (ip), vehicle: saline) was 144 % of control, the T/C (T/C endpoint: mean survival time, dose: 50.0 mg/kg/injection, schedule: Q04DX003 (ip), vehicle: saline) was 137 % of control and the T/C (T/C endpoint: mean survival time, dose: 100.0 mg/kg/injection, schedule: Q01DX001 (ip), vehicle: saline) was 143 % of control. For the same compound, the T/C (T/C endpoint: mean survival time, dose: 100.0 mg/kg/injection, schedule: Q03HX008 (ip), vehicle: saline) was 143 % of control, the T/C (T/C endpoint: mean survival time, dose: 100.0 mg/kg/injection, schedule: Q04DX003 (ip), vehicle: saline) was 143 % of control and the T/C (T/C endpoint: mean survival time, dose: 100.0 mg/kg/injection, schedule: Q08DX002 (ip), vehicle: saline) was 136 % of control. The T/C (T/C endpoint: mean survival time, dose: 100.0 mg/kg/injection, schedule: Q## X016 (ip), vehicle: saline) was 144 % of control, the T/C (T/C endpoint: mean survival time, dose: 200.0 mg/kg/injection, schedule: Q01DX005 (ip), vehicle: saline) was 135 % of control [7 of 10 alive] and the T/C (T/C endpoint: mean survival time, dose: 200.0 mg/kg/injection, schedule: Q01DX009 (ip), vehicle: saline) was 135 % of control [8 of 10 alive]. For the same compound, the survivor count (T/C endpoint: mean survival time, dose: 400.0 mg/kg/injection, schedule: Q01DX005 (ip), vehicle: saline) was 1 of 10, the survivor count (T/C endpoint: mean survival time, dose: 800.0 mg/kg/injection, schedule: Q03HX008 (ip), vehicle: saline) was 3 of 10 and the survivor count (T/C endpoint: mean survival time, dose: 800.0 mg/kg/injection, schedule: Q## X024 (ip), vehicle: saline) was 4 of 10.

In the case of CC1[N-]CCC[N-]CCC[N-]C(C)C2CCCC1[N-]2.[Ni+2].[O-][Cl+3]([O-])([O-])O (stereo not drawn), the survivor count [5] is reported as 0 of 3 and the survivor count [3] is reported as 0 of 3.

CSC(=NC#N)SC was tested, and the survivor count (T/C endpoint: mean survival time, dose: 12.5 mg/kg/injection, schedule: Q01DX001 (ip), vehicle: Klucel (hydroxypropylcellulose) (HPC)) was 0 of 3, the survivor count (T/C endpoint: mean survival time, dose: 50.0 mg/kg/injection, schedule: Q01DX001 (ip), vehicle: Klucel (hydroxypropylcellulose) (HPC)) was 0 of 3 and the survivor count (T/C endpoint: mean survival time, dose: 100.0 mg/kg/injection, schedule: Q01DX001 (ip), vehicle: Klucel (hydroxypropylcellulose) (HPC)) was 0 of 3. For the same compound, the survivor count [6] was 0 of 3.

In the case of CC1CCCN(N=Nc2ccc(Br)cc2-c2nc(N)c3cc(Br)ccc3n2)C1 (stereo not drawn), the survivor count [6] is reported as 3 of 3.

With Nc1cc(C(Br)(Br)Br)nc2ccccc12 the survivor count [2] was 2 of 6 and the survivor count (T/C endpoint: mean survival time, dose: 300.0 mg/kg/injection, schedule: Q01DX001 (ip), vehicle: saline) was 0 of 6.

C=CCN1C(=O)C=CC1=O was tested, and the survivor count [5] was 3 of 3.

For C=CN1C(=O)NC2(CCCCC2)C1=O, the survivor count (T/C endpoint: mean survival time, dose: 100.0 mg/kg/injection, schedule: Q01DX009 (ip), vehicle: saline with Tween-80) was 6 of 6.

For Cc1cc(N=Nc2ccc(S(=O)(=O)[O-])cc2)cc(C(=O)[O-])c1[O-].NC1CCCCC1N.[Na+].[Pt+4], the T/C (T/C endpoint: median survival time, dose: 1.56 mg/kg/injection, schedule: Q04DX003 (ip), vehicle: saline with Tween-80) was 142 % of control, the T/C (T/C endpoint: median survival time, dose: 25.0 mg/kg/injection, schedule: Q04DX003 (ip), vehicle: saline with Tween-80) was 126 % of control and the survivor count (T/C endpoint: median survival time, dose: 50.0 mg/kg/injection, schedule: Q04DX003 (ip), vehicle: saline with Tween-80) was 6 of 6. The survivor count (T/C endpoint: median survival time, dose: 100.0 mg/kg/injection, schedule: Q04DX003 (ip), vehicle: saline with Tween-80) was 0 of 6 and the survivor count (T/C endpoint: median survival time, dose: 200.0 mg/kg/injection, schedule: Q04DX003 (ip), vehicle: saline with Tween-80) was 0 of 6.
